Test results: US10168342B2, “Lipid probes and uses thereof” (THE SCRIPPS RESEARCH INSTITUTE, priority 2015, dated 2019)
Some entries share one result that the patent states for a list of compounds.

Target: T1, AEA-DA lipid probe targets in Neuro2a cells (Mus musculus, UniProt Q02819)
T1 sequence (Q02819 26-459): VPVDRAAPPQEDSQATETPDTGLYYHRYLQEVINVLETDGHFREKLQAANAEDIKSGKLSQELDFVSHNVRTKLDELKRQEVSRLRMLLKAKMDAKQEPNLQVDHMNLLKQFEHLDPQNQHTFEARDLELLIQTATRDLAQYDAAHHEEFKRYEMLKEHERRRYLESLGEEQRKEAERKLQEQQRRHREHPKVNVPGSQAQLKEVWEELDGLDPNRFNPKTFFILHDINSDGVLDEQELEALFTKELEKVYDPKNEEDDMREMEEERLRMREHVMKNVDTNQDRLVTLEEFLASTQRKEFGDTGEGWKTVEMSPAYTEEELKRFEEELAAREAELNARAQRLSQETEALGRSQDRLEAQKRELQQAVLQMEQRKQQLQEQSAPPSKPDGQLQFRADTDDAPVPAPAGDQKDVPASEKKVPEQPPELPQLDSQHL
Settings: compound 25 μM

| Structure (SMILES) | reduction in lipid probe enrichment of NUCB1 |
| --- | --- |
| CN1CCN(C(=O)c2c(-c3ccccc3)c3cc([N+](=O)[O-])ccc3n2C)CC1 [KML110, (1-Methyl-5-nitro-3-phenyl-1H-indol-2-yl)(4-methylpiperazin-1-yl)methanone] | 3-5 fold |
| CN1CCN(C(=O)c2[nH]c3ccc([N+](=O)[O-])cc3c2-c2ccccc2)CC1 [MJN228, (4-Methylpiperazin-1-yl)(5-nitro-3-phenyl-1H-indol-2-yl)methanone] | 3-5 fold |
